Molecules are shown by their SMILES. This is one part of the list.

The subject of this assay is T1, CTL2-GFP (C. trachomatis L2/434/Bu, GFP-expressing).
T1 construct: L2/434/Bu, GFP-expressing
Set-up: species or system HeLa; Intracellular C. trachomatis growth in HeLa cells, bulk GFP fluorescence relative to DMSO. To be noted: bulk GFP, single well; 28.5 h, 10 µM; inhibitor.
Take `Cc1cccc2cc(CN(Cc3ccco3)C(=O)C3CCCCC3)c(O)nc12` [CBK269178]: the “% of control remaining” value was 84.6674%.

Consider `Cc1nn(C)c(N2CCNCC2)c1NC(=O)CN(C)C(=O)c1ccccc1` [CBK050255T], for which the “% of control remaining” value turned out to be 77.616%.

With `CS(=O)(=O)Nc1nc2ccc(S(C)(=O)=O)cc2s1` [CBK092166], the “% of control remaining” value worked out at 87.3523%.

As for `COc1ccccc1Cn1nc2nnc(-c3ccccc3)c(-c3ccccc3)n2c1=O` [CBK286185], the “% of control remaining” value was determined as 119.602%.

Take `CC(=O)N1C[C@@H](c2cccc(C)c2)[C@@H]2CN(CC3CC3)CC[C@@H]21` [CBK283372]: the “% of control remaining” value is listed as 149.184%.

For `CNC(=O)C1CCN(Cc2ccc(-c3nnn(CC(=O)NCc4ccc(C)cc4)n3)cc2)CC1` [CBK153195T], the “% of control remaining” value amounted to 98.912%.

For `COc1ccc(C)cc1S(=O)(=O)Nc1cc(N2CCN(C(C)C)CC2)c2occc2c1` [CBK073625C], the “% of control remaining” value was 104.603%.

Regarding `O=C(c1nc[nH]n1)N1CCN(c2nccc(CCC(F)(F)F)n2)CC1` [CBK307306], the “% of control remaining” value is reported as 100.874%.

For the compound `CCn1cc([C@H]2CN(C)C[C@@H]2N(C)C)c2ccccc21` [CBK285468], the “% of control remaining” value was found to be 94.515%.

On to `COc1ccc(CCNC(=O)C2CCN(S(=O)(=O)c3ccccc3)CC2)cc1` [CBK264985], for which the “% of control remaining” value came to 113.393%.

Take `O=C(c1cccc(F)c1)N1C2CCC1CC(O)(c1cccnc1F)C2` (centres unmarked) [CBK284422]: the “% of control remaining” value is reported as 96.4504%.

`CC(C)Cc1ccc(-c2cc(Nc3ccc(O)cc3)ncn2)cc1` [CBK090754]: the “% of control remaining” value was determined as 177.815%.

For `c1ccc2c3c([nH]c2c1)C12CCN(CC1)C(C1CCOC1)N2CC3` (centres unmarked) [CBK284433], the “% of control remaining” value turned out to be 129.528%.

As to `c1c2c(cc3sc(N4CCOCC4)nc13)OCO2` [CBK287494], the “% of control remaining” value stood at 116.996%.

On to `CC(C)(C)OC(=O)N[C@@H](Cc1ccccc1)C(=O)NC[C@H]1CC[C@H](C(=O)O)CC1` [CBK286719], for which the “% of control remaining” value was determined as 104.859%.

Consider `NS(=O)(=O)c1ccc(C(=O)NCCc2c[nH]c3ccc(Cl)cc23)cc1` [CBK159780], for which the “% of control remaining” value is 111.942%.

As for `COC(=O)c1ccccc1NC(=O)CCSc1ccc(C)cc1` [CBK265958], the “% of control remaining” value was determined as 111.974%.

`COC[C@@H]1CCCN1S(=O)(=O)c1ccc(Cl)c(Cl)c1` [CBK044313]: the “% of control remaining” value worked out at 105.767%.

For `O=C(Cn1cncn1)N[C@H]1C2CCCCC2[C@@H]1c1ccccc1` (some centres unmarked) [CBK283011], the “% of control remaining” value stood at 116.094%.

With `O=C(C1CCCN(S(=O)(=O)c2ccc(F)cc2)C1)N(Cc1ccccc1)Cc1ccccc1` (centres unmarked) [CBK267652], the “% of control remaining” value is reported as 79.945%.

As for `CN(C)CCN(Cc1ccccc1)C(=O)NCc1ccc(C#N)cc1` [CBK155097], the “% of control remaining” value was 126.983%.

With `Cc1ccc(-c2nnc(CNC(=O)Cc3ccccc3Cl)o2)s1` [CBK284648], the “% of control remaining” value is on record as 147.769%.

As to `O=C(Cc1cc(C(=O)O)c2ccccc2n1)Nc1ccccc1` [CBK268227], the “% of control remaining” value is 128.245%.

Regarding `Cc1cc(NS(=O)(=O)c2ccc(F)cc2)n(C)n1` [CBK051021], the “% of control remaining” value is 109.111%.

On to `O=C(Nc1ccc(OCc2nc3ccccc3s2)cc1)c1cccc(I)c1` [CBK267843], for which the “% of control remaining” value was determined as 89.7078%.

Turning to `CCCC/N=C(\NS(=O)(=O)c1ccc(C)cc1)OCC` [CBK022731], the “% of control remaining” value is 93.8609%.

For `COc1ccc(-c2sc(C(=O)O)c(C)c2C#N)cc1` [CBK019922], the “% of control remaining” value turned out to be 98.3965%.

Consider `Cc1ccc(OC(C)C(=O)Nc2cc(C(C)(C)C)on2)cc1C` (centres unmarked) [CBK288251], for which the “% of control remaining” value is recorded as 117.424%.

As for `CC(C)(CNC(=O)CN1CCOCC1)NC(=O)OC(C)(C)C` [CBK089350], the “% of control remaining” value worked out at 120.345%.

Take `O=C1CCCC[C@]2(CN(Cc3ccccc3)C[C@H]2c2cccnc2)N1` [CBK283342]: the “% of control remaining” value amounted to 81.2687%.

As for `O=C(Cn1ccnc1)NC(Cc1cccs1)c1nccs1` (centres unmarked) [CBK285092], the “% of control remaining” value turned out to be 140.041%.

For `COc1ccc(N2C(=O)CC(Nc3cc(C(=O)O)ccc3C)C2=O)c(OC)c1` (centres unmarked) [CBK296650], the “% of control remaining” value is recorded as 127.252%.

`COc1cccc(CC(=O)N2CCC(Cc3cccc(-c4cccs4)c3)(C(N)=O)CC2)c1` [CBK285738]: the “% of control remaining” value is 160.789%.

For `COc1cc(CNCc2cccnc2)cc(Cl)c1OCc1cccs1` [CBK270026C], the “% of control remaining” value is on record as 76.8738%.

On to `Cn1ccnc1C1(O)CCN(C(=O)NCc2ccccc2)CC1` [CBK282276], for which the “% of control remaining” value is 116.564%.

`O=C(Nc1ccccc1C(=O)O)c1ccc(-c2ccc(Cl)cc2Cl)o1` [CBK078453]: the “% of control remaining” value was 72.6917%.

For the compound `Cc1cc(C(C)(C)C)cc(C)c1S(=O)(=O)NCCSCCN` [CBK013357], the “% of control remaining” value was 75.3557%.

As to `Cc1c(Cc2ccccc2)c(-n2ccnc2C)n2c(nc3ccccc32)c1C#N` [CBK263144], the “% of control remaining” value was found to be 121.488%.

On to `c1ccc(CN2CC[C@H](c3nnc(-c4cccnc4)o3)C2)cc1` [CBK289397], for which the “% of control remaining” value came out at 129.933%.

On to `COc1cc(/C=C2\S/C(=N/c3ccc(S(N)(=O)=O)cc3)NC2=O)c(Br)cc1O` [CBK265711], for which the “% of control remaining” value is on record as 100%.

Regarding `COc1ccccc1NC(=O)C(C)N1C(=O)c2ccccc2C1=O` (centres unmarked) [CBK261043], the “% of control remaining” value was found to be 112.138%.

In the case of `CCN(C#N)c1nc(NC)nc(OC)n1` [CBK265697], the “% of control remaining” value was 105.886%.

With `COc1ccc(CNC(C)C2COc3ccccc3O2)c(OC)c1` (centres unmarked) [CBK074283G], the “% of control remaining” value is reported as 129.802%.

Regarding `CNC(=O)c1sc2ccccc2c1C1CCN(C(=O)Cc2coc3c(C)c(C)ccc23)C1` (centres unmarked) [CBK285876], the “% of control remaining” value is given as 106.605%.

For the compound `CCC1CCCCN1C(=O)c1ccc(OC)c(OC)c1` (centres unmarked) [CBK084527], the “% of control remaining” value amounted to 121.05%.

As to `O=C(Nc1ccc(N2CCNCC2)c2ccccc12)c1ccccc1` [CBK028412T], the “% of control remaining” value worked out at 108.789%.

Turning to `Cc1nn(CC(C)C)c(C)c1CCC(=O)NCc1nnc2ccccn12` [CBK305719], the “% of control remaining” value is 94.5728%.

Consider `CN(C)CC(c1ccccc1)c1nnc2n1-c1ccc(S(C)(=O)=O)cc1C(c1ccccc1)=NC2` (centres unmarked) [CBK005856G], for which the “% of control remaining” value is given as 110.61%.

As to `Cc1nn(CCCC(=O)O)c(C)c1I` [CBK269796], the “% of control remaining” value came to 106.61%.

For the compound `CCn1c(C)nc2cc(NC(=O)CC3CCCCO3)ccc21` (centres unmarked) [CBK281859], the “% of control remaining” value was determined as 111.751%.

The values above are taken from article PMC12040169 (PLOS Biology, 2025).
